Test results as given in patent US20250340655A1, “EPHA2-TARGETING ANTIBODIES AND THEIR APPLICATIONS IN CANCER TREATMENT” (TAIPEI MEDICAL UNIVERSITY, priority 2022, published 2025).
Results are given in words; binding and its absence hold for the method and conditions named. Some binding calls cover weakened binding; strength is not graded here.

By UniProt entry, the sequences of proteins in these tests, tags left out. Residues count along the entry.
UniProt P29317, residues 24-976: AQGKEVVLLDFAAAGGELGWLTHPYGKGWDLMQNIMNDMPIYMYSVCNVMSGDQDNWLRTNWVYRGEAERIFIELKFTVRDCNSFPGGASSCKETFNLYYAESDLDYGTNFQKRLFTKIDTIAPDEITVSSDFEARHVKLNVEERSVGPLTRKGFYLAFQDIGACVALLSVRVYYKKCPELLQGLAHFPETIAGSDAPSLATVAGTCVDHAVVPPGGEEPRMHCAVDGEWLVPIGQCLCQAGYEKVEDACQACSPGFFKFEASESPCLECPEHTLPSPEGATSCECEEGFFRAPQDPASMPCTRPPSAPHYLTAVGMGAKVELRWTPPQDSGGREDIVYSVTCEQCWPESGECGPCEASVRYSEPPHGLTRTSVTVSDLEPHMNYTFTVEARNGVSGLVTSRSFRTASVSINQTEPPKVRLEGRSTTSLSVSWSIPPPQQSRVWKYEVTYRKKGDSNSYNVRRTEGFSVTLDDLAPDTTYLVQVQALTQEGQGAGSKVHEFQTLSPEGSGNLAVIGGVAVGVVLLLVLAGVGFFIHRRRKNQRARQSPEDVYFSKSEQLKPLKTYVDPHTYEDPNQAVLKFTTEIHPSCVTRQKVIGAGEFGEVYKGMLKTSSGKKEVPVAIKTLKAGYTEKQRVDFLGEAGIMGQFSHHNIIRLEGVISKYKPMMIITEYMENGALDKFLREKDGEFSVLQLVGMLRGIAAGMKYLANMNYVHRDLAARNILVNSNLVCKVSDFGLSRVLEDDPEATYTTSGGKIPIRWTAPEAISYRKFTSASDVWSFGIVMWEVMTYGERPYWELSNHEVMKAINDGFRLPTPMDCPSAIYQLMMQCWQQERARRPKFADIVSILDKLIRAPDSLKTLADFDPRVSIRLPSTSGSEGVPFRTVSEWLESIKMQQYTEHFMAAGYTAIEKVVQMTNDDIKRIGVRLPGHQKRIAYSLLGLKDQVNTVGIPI
UniProt P20827, residues 19-182: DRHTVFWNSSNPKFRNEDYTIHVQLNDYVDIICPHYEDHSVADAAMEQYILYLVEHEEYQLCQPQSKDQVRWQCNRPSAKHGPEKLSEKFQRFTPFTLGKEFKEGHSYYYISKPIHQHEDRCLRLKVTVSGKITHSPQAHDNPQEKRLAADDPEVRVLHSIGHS

Target: endogenous EphA2 molecule on cancer cells (human) (UniProt P29317)
Assay: confocal microscopy of BxPc-3 cells, anti-human Fc staining

Substance: ephrin A1-Fc (Sino Biological) (from UniProt P20827 19-182) (Fc fusion)
- binding: binds
